Laboratory results reported in paper PMC8649869.
Results are given in words; binding and its absence hold for the method and conditions named. In cells and extracts the contact can be indirect. Some binding calls cover weakened binding; strength is not graded here.

Amino acid sequences for entries named in this document (tags omitted).
UniProt P18848: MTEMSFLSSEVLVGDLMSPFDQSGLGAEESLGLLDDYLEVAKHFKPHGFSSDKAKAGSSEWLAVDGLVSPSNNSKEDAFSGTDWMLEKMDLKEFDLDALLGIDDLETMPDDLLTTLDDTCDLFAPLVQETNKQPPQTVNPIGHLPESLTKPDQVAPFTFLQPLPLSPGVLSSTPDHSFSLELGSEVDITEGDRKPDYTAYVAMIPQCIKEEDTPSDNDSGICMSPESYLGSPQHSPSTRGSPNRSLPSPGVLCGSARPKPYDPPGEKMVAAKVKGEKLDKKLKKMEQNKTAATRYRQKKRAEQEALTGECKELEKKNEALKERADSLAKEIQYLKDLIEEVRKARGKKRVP
UniProt Q9GZV5: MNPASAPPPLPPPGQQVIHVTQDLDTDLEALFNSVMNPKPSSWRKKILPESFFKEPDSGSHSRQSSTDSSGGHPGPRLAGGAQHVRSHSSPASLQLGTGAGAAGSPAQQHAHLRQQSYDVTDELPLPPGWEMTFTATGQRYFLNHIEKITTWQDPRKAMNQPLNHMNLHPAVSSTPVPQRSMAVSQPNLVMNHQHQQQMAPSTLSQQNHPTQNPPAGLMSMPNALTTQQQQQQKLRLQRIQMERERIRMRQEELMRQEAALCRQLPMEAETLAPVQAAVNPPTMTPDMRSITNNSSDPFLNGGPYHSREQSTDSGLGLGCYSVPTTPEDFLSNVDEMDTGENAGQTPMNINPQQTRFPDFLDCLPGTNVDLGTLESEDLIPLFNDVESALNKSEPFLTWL
UniProt P46937: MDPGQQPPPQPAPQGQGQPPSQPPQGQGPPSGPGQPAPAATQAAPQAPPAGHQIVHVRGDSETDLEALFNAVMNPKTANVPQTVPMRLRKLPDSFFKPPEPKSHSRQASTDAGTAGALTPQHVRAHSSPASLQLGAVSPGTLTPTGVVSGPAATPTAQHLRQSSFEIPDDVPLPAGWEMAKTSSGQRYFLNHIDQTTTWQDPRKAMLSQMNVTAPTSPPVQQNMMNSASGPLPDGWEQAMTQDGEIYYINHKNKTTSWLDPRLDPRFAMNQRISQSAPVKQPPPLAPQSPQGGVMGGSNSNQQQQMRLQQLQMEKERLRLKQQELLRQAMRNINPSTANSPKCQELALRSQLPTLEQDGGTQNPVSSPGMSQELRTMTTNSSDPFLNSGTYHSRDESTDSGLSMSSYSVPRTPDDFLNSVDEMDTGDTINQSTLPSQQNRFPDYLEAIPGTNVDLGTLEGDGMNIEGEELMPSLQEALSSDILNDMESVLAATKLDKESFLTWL

Biological target: ATF4 (human (endogenous in HLE)) (UniProt P18848)
Assay: co-IP; HLE cells cultured with 6 μM Sorafenib for 18 h; lysed with CST lysis buffer with protease inhibitors at 4°C; ATF4 immunoprecipitated with specific antibody and protein A/G-Sepharose overnight at 4°C, five washes; YAP, TAZ and ATF4 detected by immunoblotting; unrelated IgG as control

Row | binding | Substance
1 | binds | TAZ (from UniProt Q9GZV5 1-400)
2 | binds | YAP (from UniProt P46937 1-504)
